Reference: patent US4670540A (Ajinomoto Co., Inc., priority 1984, dated 1987)

experiment: general procedure: solution-phase peptide synthesis; WSCI/HOBt; conditions: coupling step

Q: With “Boc-Ala-Gln-Ser(Bzl)-Gly-Leu-Gly-Asu[Phe-Gly-Gly-Arg(Tos)-Met-Asp(OChx)-Arg(Tos)-Ile-Gly-OPac]-Asn-Ser(Bzl)-Phe-Arg(Tos)-Tyr(Cl2Bzl)-OBzl” as the substance, how does the step yield read?
A: The step yield was 81%.

Q: With “Boc-Ala-Gln-Ser(Bzl)-Gly-Leu-GlyAsu[Phe-Gly-Gly-Arg(Tos)-Nle-Asp(OBzl)-Arg(Tos)-Ile-Gly-OPac]-Asn-Ser(Bzl)-Phe-Arg(Tos)-Tyr(Cl2 Bzl)-OBzl” as the substance, how does the step yield read?
A: Its step yield is 85%.

Q: For “Boc-Ala-Gln-Ser(Bzl)Gly-Leu-Gly-Asu(OPac)-Asn-Ser(Bzl)-Phe-Arg(Tos)-Tyr(Cl2 Bzl)-OBzl”, which step yield is on record?
A: Its step yield is 68%.

Q: Which step yield does the source give for “Boc-AlaGlnSer(Bzl)GlnLeuGlyAsu(OPac)-OBzl” here?
A: The step yield was 88%.

Q: For “Boc-AlaGlnSer(Bzl)GlyLeuGlyCys(4-MeBzl)AsnSer(Bzl) PheArg(Tos)Tyr(Cl2 Bzl)-OBzl”, which step yield is on record?
A: The step yield was 93.9%.

Q: For “Boc-AlaGlnSer(Bzl)GlyLeuGlyCys(4-MeBzl)AsnSer(Bzl)-OBzl (17-25)”, which step yield is on record?
A: The step yield was 96%.

Q: Which step yield does the source give for “Boc-Arg(Tos)MetAsp(OBzl)Arg (Tos)IleGlyAlaGlnSer(Bzl)GlyLeuGlyCys(4-MeBzl)AsnSer(Bzl)PheArg(Tos)Tyr(Cl2 Bzl)-OBzl” here?
A: The step yield was 97.9%.

Q: With “Boc-Arg(Tos)MetAsp(OBzl)Arg(Tos)Ile-GlyAlaGlnSer(Bzl)GlyLeuGlyCys(4-MeBzl)AsnSer-(Bzl)-OBzl(11-25)” as the substance, how does the step yield read?
A: Its step yield is 94%.

Q: With “Boc-Arg(Tos)MetAsp(OBzl)Arg(Tos)IleGlyAlaGlnSer(Bzl)GlyLeuGlyAsu(OPac)-OBz” as the substance, how does the step yield read?
A: Its step yield is 86%.

Q: Which step yield does the source give for “Boc-Arg(Tos)MetAsp(OBzl)Arg(Tos)IleGlylAaGlnSer(Bzl)GlyLeuGlyCys(4-MeBzl)AsnSer(Bzl)PheArg(Tos)-OBzl” here?
A: Its step yield is 91.2%.

Q: For “Boc-Arg(Tos)NleAsp(OBzl)Arg(Tos)-IleGlyAlaGlnSer(Bzl)GlyLeuGlyCys(4-MeBzl)-AsnSer(Bzl)PheArg(Tos)Tyr(OBzl)-OBzl”, which step yield is on record?
A: Its step yield is 93.4%.

Q: For “Boc-AsnSer(Bzl)PheArg(Tos)Tyr(Cl2 Bzl)-OBzl”, which step yield is on record?
A: Its step yield is 90.9%.

Q: For Boc-C(Meb)FGG-OPac, which step yield is on record?
A: The step yield was 80.1%.

Q: With “Boc-Cys(4-CH3 Bzl)-Phe-Gly-Gly-Arg(Tos)-Met-D-Asp(OBzl)-Arg(Tos)-Ile -Gly-Ala-Gln-Ser(Bzl)-Gly-Leu-Gly-Cys(4-CH3 Bzl)-Asn-Ser(Bzl)-Phe-Arg(Tos)Tyr(Cl2 Bzl)-OBzl” as the substance, how does the step yield read?
A: The step yield was 94.5%.

Q: Which step yield does the source give for “Boc-Cys(4-CH3 Bzl)-Phe-Gly-Gly-Arg(Tos)-Met-D-Asp(OBzl)-Arg(Tos)-Ile-Gly-OPac” here?
A: Its step yield is 81.9%.

Q: With “Boc-Cys(4-MeBzl)AsnSer(Bzl)PheArg(Tos)Tyr(Cl2 Bzl)-OBzl” as the substance, how does the step yield read?
A: The step yield was 95.4%.

Q: For “Boc-Cys(4-MeBzl)PheGlyGlyArg(Tos)MetAsp(OBzl)Arg(Tos)IleGlyAlaGlnSer(Bzl)GlyLeuGlyCys(4-MeBzl)AsnSer(OBzl)PheArg (2Bzl)-OBzl”, which step yield is on record?
A: The step yield was 91.6%.

Q: For Boc-FGGR(Tos)MD(OcHex)R(Tos)IG-OPac, which step yield is on record?
A: Its step yield is 92%.

Q: With Boc-FGGR(Tos)[Nle]D(OBn)R(Tos)IG-OPac as the substance, how does the step yield read?
A: The step yield was 79%.

Q: With “Boc-LR(Tos)R(Tos)S(Bn)S(Bn)C(Meb)FGG-OPac” as the substance, how does the step yield read?
A: The step yield was 92.2%.

Q: For Boc-M[dD](OBn)R(Tos)IG-OPac, which step yield is on record?
A: Its step yield is 84.2%.

Q: For Boc-NS(Bn)FR(Tos)-OBn, which step yield is on record?
A: The step yield was 84.9%.

Q: For “Boc-PheGlyGlyaAg(Tos)MetAsp(OBzl)Arg(Tos)IleGlyAlaGlnSer(Bzl)GlyLeuGlyAsu (OPac)-OBzl”, which step yield is on record?
A: Its step yield is 92%.

Q: Which step yield does the source give for Boc-R(Tos)MD(OBn)R(Tos)IG-OPac here?
A: Its step yield is 94%.

Q: For Boc-R(Tos)M[dD](OBn)R(Tos)IG-OPac, which step yield is on record?
A: Its step yield is 64.7%.

Q: For “Boc-R(Tos)R(Tos)S(Bn)S(Bn)C(Meb)FGG-OPac”, which step yield is on record?
A: Its step yield is 88.6%.

Q: With Boc-R(Tos)S(Bn)S(Bn)C(Meb)FGG-OPac as the substance, how does the step yield read?
A: Its step yield is 92.9%.

Q: With Boc-R(Tos)[Nle]D(OBn)R as the substance, how does the step yield read?
A: Its step yield is 91%.

Q: With “Boc-S(Bn)LR(Tos)R(Tos)S(Bn)S(Bn)C(Meb)FGG-OPac” as the substance, how does the step yield read?
A: The step yield was 91.8%.

Q: For Boc-S(Bn)S(Bn)C(Meb)FGG-OPac, which step yield is on record?
A: Its step yield is 91.7%.

Q: For Boc-Ser(Bzl)Cys(4-Bzl)PheGlyGly-OPac, which step yield is on record?
A: The step yield was 80.7%.

Q: With “Boc-Ser(Bzl)LeuArg(Tos)Arg(Tos) Ser(Bzl)SerCys(4-MeBzl)PheGlyGlyArg(Tos)Met Asp(OBzl)Arg(Tos)IleGlyAlaGlnSer(Bzl)GlyLeuGly Cys(4-MeBzl)AsnSer(Bzl)PheArg(Tos) Tyr (Cl2 Bzl)-OBzl” as the substance, how does the step yield read?
A: The step yield was 96.5%.

Q: With “Boc-Ser(Bzl)LeuArg(Tos)Arg(Tos)Ser(Bzl)Ser(Bzl)Cys(4-MeBzl)PheGlyGlyArg(Tos)NleAsp(OBzl)Arg(Tos)IleGlyAlaGlnSer(Bzl)GlyLeuGlyCys(4MeBzl)AsnSer(Bzl)PheArg(Tos)Tyr(OBzl)-OBzl” as the substance, how does the step yield read?
A: The step yield was 92.9%.

Q: Which step yield does the source give for Boc-Ser(Bzl)PheArg(Tos)Tyr(Cl2 Bzl)OBzl here?
A: The step yield was 85.5%.

Q: For “Boc-Ser(Bzl)Ser(Bzl)Cys (4-MeBzl)Phe-GlyGlyArg(Tos)MetAsp(OBzl)Arg(Tos)IleGly-AlaGlnSer(Bzl)GlyLeuGlyCys(4MeBzyl) AsnSer(Bzl)PheArg(Tos)-OBzl”, which step yield is on record?
A: The step yield was 80.5%.

Q: Which step yield does the source give for “Boc-Ser(Bzl)Ser(Bzl)Cys(4-MeBzl)PheGlyGlyArg(Tos)MetAsp(OBzl)Arg(Tos) IleGlyAlaGlnSer(Bzl)-GlyLeuGlyCys(4-MeBzl)AsnSer(Bzl)PheArg(Tos)Tyr(Cl2 Bzl)-OBzl” here?
A: Its step yield is 91.3%.

Q: For Boc-[Nle]D(OBn)R(Tos)IG-OPac, which step yield is on record?
A: The step yield was 83%.

Q: For Boc-[dD](OBn)R(Tos)IG-OPac, which step yield is on record?
A: The step yield was 86.6%.

Q: For “PEPTIDE1{C.F.G.G.R.M.[dD].R.I.G.A.Q.S.G.L.G.C.N.S.F.R.Y}$PEPTIDE1,PEPTIDE1,1:R3-17:R3$$$V2.0”, which step yield is on record?
A: Its step yield is 95%.

Q: With “PEPTIDE1{C.F.G.R.M.D.R.I.G.A.Q.S.G.L.G.C.N.S.F.R.Y}$PEPTIDE1,PEPTIDE1,1:R3-16:R3$$$V2.0” as the substance, how does the step yield read?
A: Its step yield is 98%.

Q: With “PEPTIDE1{F.G.G.R.M.D.R.I.G.A.Q.S.G.L.G.[Asu].N.S.F.R.Y}$PEPTIDE1,PEPTIDE1,1:R1-16:R3$$$V2.0” as the substance, how does the step yield read?
A: The step yield was 92.5%.

Q: With “PEPTIDE1{F.G.G.R.M.D.R.I.G.A.Q.S.G.L.G.[Asu]}$PEPTIDE1,PEPTIDE1,1:R1-16:R3$$$V2.0” as the substance, how does the step yield read?
A: Its step yield is 75.4%.

Q: For “PEPTIDE1{F.G.G.R.[Nle].D.R.I.G.A.Q.S.G.L.G.[Asu].N.S.F.R.Y}$PEPTIDE1,PEPTIDE1,1:R1-16:R3$$$V2.0”, which step yield is on record?
A: Its step yield is 94%.

Q: Which step yield does the source give for “PEPTIDE1{S.L.R.R.S.S.C.F.G.G.R.[Met(O)].D.R.I.G.A.Q.S.G.L.G.C.N.S.F.R.Y}$PEPTIDE1,PEPTIDE1,7:R3-23:R3$$$V2.0” here?
A: Its step yield is 96.5%.

Q: With “PEPTIDE1{S.S.C.F.G.G.R.M.D.R.I.G.A.Q.S.G.L.G.C.N.S}$PEPTIDE1,PEPTIDE1,3:R3-19:R3$$$V2.0” as the substance, how does the step yield read?
A: Its step yield is 90.3%.

Q: With Z-Cys(4-CH3 Bzl)-Phe-D-Ala-Gly-OH as the substance, how does the step yield read?
A: The step yield was 72.4%.

same assay, conditions: late stage modification step

Q: With “Boc-Ala-Gln-Ser(Bzl)-Gly-Leu-Gly-Asu(OH)-Asn-Ser(Bzl)-Phe-Arg(Tos)-Tyr(Cl2 Bzl)-OBzl” as the substance, how does the step yield read?
A: Its step yield is 86%.

Q: For “Boc-Ala-Gln-Ser(Bzl)-Gly-Leu-Gly-Asu[Phe-Gly-Gly-Arg(Tos)-Met-Asp(OChx)-Arg(Tos)-Ile-Gly-OH]-Asn-Ser(Bzl)-Phe-Arg(Tos)-Tyr(Cl2Bzl)-OBzl”, which step yield is on record?
A: Its step yield is 95%.

Q: Which step yield does the source give for “Boc-Ala-Gln-Ser(Bzl)-Gly-Leu-Gly-Asu[Phe-Gly-Gly-Arg(Tos)-Nle-Asp(OBzl)-Arg(Tos)-Ile-GlyOH]-Asn-Ser(Bzl)-Phe-Arg(Tos)-Tyr(Cl2 Bzl)-OBzl” here?
A: Its step yield is 89%.

Q: For “Boc-Arg(Tos)-Ser(Bzl)-Ser(Bzl)-Cys(4-CH3 Bzl)-Phe-Gly-Gly-OH”, which step yield is on record?
A: The step yield was 82.0%.

Q: Which step yield does the source give for Boc-C(Meb)FGG-OH here?
A: Its step yield is 87.3%.

Q: With “Boc-Cys(4-CH3 Bzl)-Phe-Gly-Gly-Arg(Tos)-Met-D-Asp(OBzl)-Arg(Tos)-Ile-Gly-OH” as the substance, how does the step yield read?
A: The step yield was 78.9%.

Q: With “Boc-PheGlyGlyArg(Tos)MetAsp(OBzl)Arg(Tos)IleGlyAlaGlnSer(Bzl)GlyLeuGly-Asu(OH)-OBzl” as the substance, how does the difficulty met read?
A: The difficulty met was “The compound obtained by changing Met to Met(O) is much involved in the product (about 30%)”.

Q: Which step yield does the source give for Boc-R(Tos)MD(OBn)R(Tos)IG-OH here?
A: Its step yield is 96%.

Q: For “Boc-S(Bn)LR(Tos)R(Tos)S(Bn)S(Bn)C(Meb)FGG-OH”, which step yield is on record?
A: Its step yield is 82.1%.

Q: Which step yield does the source give for “Boc-Ser(Bzl)Ser(Bzl)Cys(4-MeBZL)PheGlyGly-OH” here?
A: The step yield was 95.5%.

Q: For “PEPTIDE1{F.G.G.R.M.D.R.I.G.A.Q.S.G.L.G.[Asu].N.S.F.R.Y}$PEPTIDE1,PEPTIDE1,1:R1-16:R3$$$V2.0”, which step yield is on record?
A: Its step yield is 13%.

same assay, conditions: whole synthesis

Q: With “PEPTIDE1{S.S.C.F.G.G.R.M.D.R.I.G.A.Q.S.G.L.G.C.N.S}$PEPTIDE1,PEPTIDE1,3:R3-19:R3$$$V2.0” as the substance, how does the isolated yield read?
A: The isolated yield was 10.3%.

Some peptides are written in HELM: one residue between dots, names in brackets for other building blocks, links after the first $. Square brackets hold non-standard residues; d marks the D form. Ends that are not written are not given here. * marks the point of attachment. Tos = Cc1ccc(S(=O)(=O)*)cc1; Nle = CCCC[C@H](N)C(=O)O; OPac = O=C(CO*)c1ccccc1; Boc = CC(C)(C)OC(=O)*; OcHex = C1CCC(O*)CC1; Meb = Cc1ccc(C*)cc1; OBn = c1ccc(CO*)cc1; Bn = c1ccc(C*)cc1
